Measured values published in PubChem BioAssay AID504834 (National Center for Advancing Translational Sciences (NCATS), 2011).
The whole screen tested about 320,000 compounds, of which about 22,000 (6.9%) were called active. The inconclusive results got no clear call from the source; some entries with a clear call stand among them for comparison. Calls come from the whole dose curve; as a rule, active = well fitted inhibition curve with a large enough effect; inconclusive = small, poorly fitted or top-dose-only effect, or another doubt; inactive = no such curve, though single readings can be large or run the other way. Where the call is inconclusive, the potency comes from a doubtful curve fit.

experiment: Primary qHTS for delayed death inhibitors of the malarial parasite plastid, 96 hour incubation; conditions: P. falciparum luciferase reporter growth; series mostly up to 28.7 µM; activity change, negative = inhibition: at the top concentration
Procedure, shortened: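 P. falciparum expressing integrated firefly luciferase, in erythrocytes at 2% hematocrit, 0.05% parasitemia, incubated with compounds 96 h at 37 C, 5% CO2. Growth inhibition read as loss of luminescence; two-generation exposure targets delayed-death apicoplast inhibitors.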
% is set by controls: 0 for no effect and ±100 for the full control effect; potency is the fitted concentration of half-maximal effect.

| SMILES | activity change, negative = inhibition | Potency |
| --- | --- | --- |
| CCOC(=O)CN1C(=O)S/C(=C/C=C/c2ccc(N(C)C)cc2)C1=O | inactive: -13.6% |  |
| CC1(NC(=O)COc2ccccc2-c2ccccc2)CCS(=O)(=O)C1 (stereo not given) |  | inconclusive: 7.38 µM [inhibitor, partial curve] |
| O=C(CSc1cn(Cc2cccc(F)c2)c2ccccc12)NCc1ccc(F)cc1 |  | inconclusive: 18.5 µM [inhibitor, single point] |
| COC(=O)/C(=C/c1cn(C)c2ccccc12)[N+](=O)[O-] |  | inconclusive: 9.28 µM [inhibitor, partial curve, poor fit] |
| CCNc1nc(NCC)nc(N/N=C/c2ccc(N(C)C)cc2)n1 |  | inconclusive: 18.5 µM [inhibitor, single point] |
| COc1cc(NC(=O)c2ccc3c(c2)OCCO3)ccc1NC(=O)c1cccs1 | inactive: -22.5% |  |
| CCCSc1nc(C)c(-c2csc(C(C#N)=C3CCCC3)n2)cc1C#N | inactive: 21% |  |
| Cc1ccc(C(=O)Nc2ccncc2)c(Cl)c1 |  | inconclusive: 4.15 µM [inhibitor, single point] |
| COc1cc(N=Nc2ccccc2C(=O)O)ccc1O |  | inconclusive: 11.7 µM [inhibitor, single point] |
| CC1CN(C/C(=N\O)C23CC4CC(CC(C4)C2)C3)CC(C)O1 (stereo not given) | inactive: -25.8% |  |
| CCOc1ccc(S(=O)(=O)NCCCn2ccnc2)cc1NC(C)=O |  | active: 13.1 µM |
| CCCN1Cc2cccc(C(=O)N3CCN(c4ccccc4)CC3)c2C1=O |  | inconclusive: 3.7 µM [inhibitor, full curve, poor fit] |
| O=C(N/C(=C\c1ccc([N+](=O)[O-])cc1)C(=O)N1CCOCC1)c1ccccc1 |  | inconclusive: 5.86 µM [inhibitor, partial curve] |
| O=C(CN(C1CCCCC1)S(=O)(=O)c1ccccc1)NCc1ccco1 |  | active: 4.65 µM |
| COc1cnc(-c2ccccn2)nc1Sc1ccc(C)cc1 |  | inconclusive: 0.738 µM [inhibitor, full curve] |
| COc1cccc(C(=O)Nc2nnc(-c3cccs3)o2)c1 | inactive: -72.5% |  |
| C=CCN(Cc1cccs1)C(=O)CN1CCN(S(=O)(=O)c2ccc3c(c2)OCCCO3)CC1 |  | inconclusive: 5.86 µM [inhibitor, partial curve, poor fit] |
| COc1cc2c(cc1NC(=O)COC(=O)CNC(=O)c1ccccc1)oc1ccccc12 | inactive: 111% |  |
| COC(=O)c1cn(NC(=O)c2ccc(OC)c(OC)c2)c(=O)c2ccccc12 |  | active: 13.1 µM |
| O=C(CCOc1ccccc1)Nc1ccnn1C1CCN(Cc2ccccc2)CC1 |  | inconclusive: 11.7 µM [inhibitor, single point] |
| Nc1nc(SCc2ccc(Cl)cc2Cl)nc2nc3c(cc12)CCCC3 |  | active: 13.1 µM |
| NC(N)=N/N=C/c1ccc(Cl)c(Cl)c1 |  | inconclusive: 2.62 µM [inhibitor, full curve] |
| COc1cc(C(C)=O)ccc1Oc1cc(NN2CCCCC2)c([N+](=O)[O-])cc1[N+](=O)[O-] | inactive: -19.5% |  |
| Nc1c(C(=O)c2ccc(Br)cc2)oc2ccccc12 | inactive: -5.59% |  |

| SMILES | activity change, negative = inhibition | Potency |
| --- | --- | --- |
| CSc1nc2sc3c(c2c(=O)n1C1CCCCC1)CCN(C)C3 |  | inconclusive: 6.57 µM [inhibitor, partial curve] |
| O=C(Nc1cc(C(F)(F)F)ccc1N1CCOCC1)c1ccc2ccccc2n1 |  | inconclusive: 18.5 µM [inhibitor, single point] |
| Cc1cc(OCC(=O)N(Cc2ccco2)C2CCS(=O)(=O)C2)ccc1Cl (stereo not given) |  | inconclusive: 18.5 µM [inhibitor, single point] |
| CC(=O)N/C(=C/c1ccc2c(c1)OCO2)C(=O)NCc1ccccc1 | inactive: -12.5% |  |
| COc1ccccc1N1CCN(C(=O)c2oc3cc(C)cc(C)c3c2C)CC1 |  | inconclusive: 10.4 µM [inhibitor, partial curve] |
| COC(=O)c1cc(Oc2ccc(C(=O)OC)cc2N)cc(C(=O)OC)c1 |  | inconclusive: 10.4 µM [inhibitor, single point] |
| O=C(O)CSC12CC3CC(C1)CC(C(=O)O)(C3)C2 |  | inconclusive: 10.4 µM [inhibitor, single point] |
| CCOC(=O)C1CN(S(=O)(=O)c2ccccc2)c2cc(S(=O)(=O)CC)ccc2O1 (stereo not given) |  | inconclusive: 0.0033 µM [inhibitor, full curve, poor fit] |
| COc1cc(CNCCO)cc(Br)c1OCc1ccccc1Cl |  | active: 11.7 µM |
| CC(=O)Nc1cc(C(=O)OC(C(=O)c2ccccc2)c2ccccc2)ccc1C (stereo not given) |  | inconclusive: 7.38 µM [inhibitor, partial curve] |
| COc1ccccc1N1CCN(C(=S)Nc2ccc3nc(N4CCOCC4)cc(C)c3c2)CC1 |  | inconclusive: 18.5 µM [inhibitor, single point] |
| CCOC(=O)N1CCc2c(sc(NC(=O)C3=COCCO3)c2C(N)=O)C1 |  | inconclusive: 18.5 µM [inhibitor, single point] |
| CN(CC(=O)Nc1cccc(F)c1)C(=O)CCc1nc2sc3c(c2c(=O)[nH]1)CCCC3 | inactive: -20.8% |  |
| O=C(c1ccc(OC2CCN(Cc3ccc(C(F)(F)F)cc3)CC2)cc1)N1CCCCC1 |  | inconclusive: 14.7 µM [inhibitor, partial curve] |
| CN1C(C(=O)Nc2ccc(OC(F)(F)F)cc2)=CC(c2ccc3c(c2)OCO3)=NS1(=O)=O |  | inconclusive: 18.5 µM [inhibitor, single point] |
| Cc1ccccc1C(=O)N1CCc2ccccc2C1 | inactive: -28.7% |  |
| S=c1[nH]nc(-c2cc3ccccc3o2)n1Cc1ccccc1 | inactive: -11.1% |  |
| COCCNC(=O)c1noc2c1CCc1cc(OC)ccc1-2 |  | inconclusive: 1.65 µM [inhibitor, full curve, poor fit] |
| COc1cccc(NC(=O)CCNC(=O)N2CC(=O)Nc3ccccc32)c1 |  | inconclusive: 18.5 µM [inhibitor, single point] |
| O=C(Cn1cccc1C(=O)c1ccccc1)NCc1ccc(F)cc1 |  | inconclusive: 14.7 µM [inhibitor, single point] |
| CCN1C(=O)N[C@H](c2ccc(Br)cc2)C(C(C)=O)=C1C |  | inconclusive: 16.5 µM [inhibitor, single point] |
| C=CCN(c1ccccc1OC)S(=O)(=O)c1cccc(C(=O)Nc2nnc(C3CC3)s2)c1 |  | active: 9.28 µM |
| CC(=O)N1CCc2cc(S(=O)(=O)C(C)CC(=O)Nc3ccc(OC(F)(F)F)cc3)ccc21 (stereo not given) | inactive: -15.3% |  |
| OCCC1CN(Cc2cnc(N3CCCC3)s2)CCN1Cc1ccccc1 (stereo not given) |  | inconclusive: 10.4 µM [inhibitor, single point] |

| SMILES | activity change, negative = inhibition | Potency |
| --- | --- | --- |
| CC(C)(C)C(=O)CSc1ncnc2c1cnn2Cc1ccccc1 |  | inconclusive: 0.0029 µM [inhibitor, full curve, poor fit] |
| COc1ccc(Cl)cc1NC(=O)CN(C)CC(=O)Nc1ccc(C)cc1Br |  | inconclusive: 9.28 µM [inhibitor, partial curve, poor fit] |
| CCOC(=O)[C@H]1[C@H]2COc3ccc(Br)cc3[C@@H]2N2C(=O)c3cc(OC)c(OC)cc3NC(=O)[C@@]12C |  | inconclusive: 0.828 µM [inhibitor, full curve] |
| N/C(=N\OC(=O)CCC1CCCC1)c1ccc(Cl)cc1 |  | inconclusive: 3.7 µM [inhibitor, partial curve, poor fit] |
| CCOC(=O)C1=C(c2ccccc2)NC(=O)NC1c1cc(OC)c(OC)cc1OC (stereo not given) | inactive: 12.3% |  |
| CCOC(=O)/C(=N\Nc1cccc(C(F)(F)F)c1)N(CCOC)CCOC |  | inconclusive: 11.7 µM [inhibitor, single point] |
| CCOc1cc(C(=O)O/N=C(\N)c2ccccn2)cc(OCC)c1OCC | inactive: -17.4% |  |
| O=S(=O)(c1ccc(S(=O)(=O)N2CCCN(Cc3ccccc3)C2)cc1)N1CCCCCC1 | inactive: 77.5% |  |
| CC1=C/C(=N\Nc2ccccc2[N+](=O)[O-])CC(C)(C)C1 | inactive: -25.7% |  |
| Cc1cc(C)c(NC(=O)c2ccc3c(c2)NC(=O)C(C)S3)c(C)c1 (stereo not given) |  | inconclusive: 7.38 µM [inhibitor, partial curve] |
| CC(=O)Nc1ccc(NC(=O)CSC2=NS(=O)(=O)c3ccccc3N2)cc1 | inactive: 66% |  |
| Cc1ccc(N(CC(=O)NCc2ccccn2)S(=O)(=O)c2ccccc2)cc1Cl | inactive: 0.229% |  |
| O=C(COc1cc2oc(=O)c3c(c2cc1Cl)CCCC3)N1C[C@H]2C[C@@H](C1)c1cccc(=O)n1C2 |  | inconclusive: 18.5 µM [inhibitor, single point] |
| C[C@@]12C(=O)N(Cc3ccccc3)CC(=O)N1[C@H]1c3ccccc3OC[C@@H]1[C@@H]2c1ccccc1 |  | inconclusive: 3.7 µM [inhibitor, single point] |
| CCOC(=O)C1(Cc2ccccc2C)CCCN(C(=O)c2sccc2C)C1 (stereo not given) |  | inconclusive: 18.5 µM [inhibitor, single point] |
| CC(C)Cn1c(N)c(C(=O)COC(=O)CC23CC4CC(CC(C4)C2)C3)c(=O)n(C)c1=O |  | inconclusive: 4.65 µM [inhibitor, partial curve, poor fit] |
| O=C1CCN(C(=O)CNC(=O)Cc2ccccc2)CC1 | inactive: 22.4% |  |
| Clc1c2c(nc3ccccc13)CCC2 | inactive: -13.7% |  |
| Cc1cccc(C)c1OCCNC(=O)C(=O)NCc1ccco1 |  | inconclusive: 7.38 µM [inhibitor, partial curve] |
| N#CC(Sc1ccccn1)c1ccc(Cl)cc1 (stereo not given) |  | inconclusive: 0.0037 µM [inhibitor, full curve, poor fit] |
| O=C(NCCOc1ccccc1)C1CCCCC1 |  | inconclusive: 18.5 µM [inhibitor, single point] |
| CCNc1nnc(-c2ccccc2OC)s1 |  | inconclusive: 18.5 µM [inhibitor, single point] |
